Experimental data: the supplement of paper PMC12823440, “Inhibitors supercharge kinase turnover through native proteolytic circuits” (Nature, 2025)
The other results are listed elsewhere or left out. Hit calls seldom repeat between salt and free forms of one compound.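 In K562 cells expressing nanoluciferase-fused kinases, luminescence was recorded at 4 h intervals between 2 and 18 h, normalized as percent of control with DMSO at 100% and a positive control at 0%. A significant (2 sigma) signal drop marks a time point as decreased. The authors' rule for a hit is not shown and takes in more than the number of time points.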

Protein sequences, listed by entry. Tags and fused reporters are not part of them. Lines headed by an entry give the natural chain unless they say otherwise; changes in a name come on top.
UniProt P50750, whole entry: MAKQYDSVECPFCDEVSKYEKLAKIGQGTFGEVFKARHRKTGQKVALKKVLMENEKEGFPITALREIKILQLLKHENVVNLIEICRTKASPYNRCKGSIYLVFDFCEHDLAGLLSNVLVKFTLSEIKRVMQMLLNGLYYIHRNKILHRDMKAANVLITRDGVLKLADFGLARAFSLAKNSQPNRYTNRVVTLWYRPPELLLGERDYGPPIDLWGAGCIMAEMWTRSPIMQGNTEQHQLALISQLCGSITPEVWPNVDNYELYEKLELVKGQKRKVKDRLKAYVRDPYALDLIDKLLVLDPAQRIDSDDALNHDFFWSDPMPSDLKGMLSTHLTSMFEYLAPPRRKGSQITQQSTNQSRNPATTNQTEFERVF
UniProt O96017, whole entry: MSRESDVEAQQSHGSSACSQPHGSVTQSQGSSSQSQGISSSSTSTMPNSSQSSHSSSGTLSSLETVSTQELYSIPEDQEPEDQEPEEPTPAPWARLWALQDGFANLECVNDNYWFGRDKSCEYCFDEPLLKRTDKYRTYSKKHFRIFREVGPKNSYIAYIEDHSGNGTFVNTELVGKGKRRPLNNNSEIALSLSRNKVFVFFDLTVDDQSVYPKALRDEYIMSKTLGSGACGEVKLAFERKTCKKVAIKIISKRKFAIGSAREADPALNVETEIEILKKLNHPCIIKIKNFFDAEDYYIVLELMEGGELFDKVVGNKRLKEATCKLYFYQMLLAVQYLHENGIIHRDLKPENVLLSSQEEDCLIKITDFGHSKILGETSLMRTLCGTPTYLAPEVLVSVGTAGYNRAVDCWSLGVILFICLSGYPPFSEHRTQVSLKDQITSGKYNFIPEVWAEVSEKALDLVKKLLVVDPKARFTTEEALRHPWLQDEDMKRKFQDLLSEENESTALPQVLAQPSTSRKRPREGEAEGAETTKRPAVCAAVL
UniProt P07333, whole entry: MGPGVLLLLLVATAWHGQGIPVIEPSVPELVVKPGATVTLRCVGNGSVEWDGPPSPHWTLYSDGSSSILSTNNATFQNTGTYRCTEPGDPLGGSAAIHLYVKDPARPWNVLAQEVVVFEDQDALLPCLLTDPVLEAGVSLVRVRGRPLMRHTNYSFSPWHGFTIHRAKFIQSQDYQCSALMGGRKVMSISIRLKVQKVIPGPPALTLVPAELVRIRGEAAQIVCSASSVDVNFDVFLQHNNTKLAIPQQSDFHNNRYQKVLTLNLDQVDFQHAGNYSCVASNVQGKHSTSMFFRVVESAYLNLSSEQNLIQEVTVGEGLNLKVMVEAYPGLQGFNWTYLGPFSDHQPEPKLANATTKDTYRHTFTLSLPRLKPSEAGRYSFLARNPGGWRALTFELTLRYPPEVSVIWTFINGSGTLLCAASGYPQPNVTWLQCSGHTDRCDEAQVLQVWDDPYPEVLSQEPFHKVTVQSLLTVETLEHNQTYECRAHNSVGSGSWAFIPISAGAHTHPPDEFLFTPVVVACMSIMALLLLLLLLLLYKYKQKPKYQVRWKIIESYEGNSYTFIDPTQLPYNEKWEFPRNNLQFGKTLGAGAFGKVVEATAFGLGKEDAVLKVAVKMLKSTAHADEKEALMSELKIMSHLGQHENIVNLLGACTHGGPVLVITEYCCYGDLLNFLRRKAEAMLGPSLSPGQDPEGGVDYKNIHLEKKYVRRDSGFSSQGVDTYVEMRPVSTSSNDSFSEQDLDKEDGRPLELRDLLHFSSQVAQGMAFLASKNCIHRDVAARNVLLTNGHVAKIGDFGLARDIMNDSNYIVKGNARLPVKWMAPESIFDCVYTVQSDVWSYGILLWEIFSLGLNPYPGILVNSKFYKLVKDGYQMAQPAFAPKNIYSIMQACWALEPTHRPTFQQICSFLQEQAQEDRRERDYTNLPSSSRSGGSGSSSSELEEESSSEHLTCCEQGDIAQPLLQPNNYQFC
UniProt P41240: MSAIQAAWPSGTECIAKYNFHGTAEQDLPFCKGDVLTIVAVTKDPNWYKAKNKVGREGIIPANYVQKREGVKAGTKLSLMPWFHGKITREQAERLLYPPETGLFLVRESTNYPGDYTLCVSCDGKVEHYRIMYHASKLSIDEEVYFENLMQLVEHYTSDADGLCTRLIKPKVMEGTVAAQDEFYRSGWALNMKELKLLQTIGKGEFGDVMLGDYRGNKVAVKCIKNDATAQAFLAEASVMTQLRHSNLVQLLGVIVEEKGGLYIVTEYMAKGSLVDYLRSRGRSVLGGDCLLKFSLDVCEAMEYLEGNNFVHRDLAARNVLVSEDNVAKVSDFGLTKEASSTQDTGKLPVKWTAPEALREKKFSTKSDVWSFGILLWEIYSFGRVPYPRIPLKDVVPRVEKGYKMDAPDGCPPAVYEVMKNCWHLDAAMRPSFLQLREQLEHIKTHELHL
UniProt P48730: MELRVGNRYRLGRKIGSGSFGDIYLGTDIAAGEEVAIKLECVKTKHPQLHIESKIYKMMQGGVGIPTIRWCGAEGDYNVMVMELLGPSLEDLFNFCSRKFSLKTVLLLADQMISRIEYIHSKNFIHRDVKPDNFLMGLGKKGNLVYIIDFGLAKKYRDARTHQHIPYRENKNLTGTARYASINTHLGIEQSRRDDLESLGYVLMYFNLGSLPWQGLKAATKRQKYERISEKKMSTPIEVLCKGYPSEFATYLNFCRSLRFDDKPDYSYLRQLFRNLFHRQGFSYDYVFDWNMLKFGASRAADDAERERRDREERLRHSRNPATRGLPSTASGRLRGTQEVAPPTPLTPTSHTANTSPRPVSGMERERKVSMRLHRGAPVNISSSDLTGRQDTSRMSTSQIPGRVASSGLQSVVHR
UniProt Q08345: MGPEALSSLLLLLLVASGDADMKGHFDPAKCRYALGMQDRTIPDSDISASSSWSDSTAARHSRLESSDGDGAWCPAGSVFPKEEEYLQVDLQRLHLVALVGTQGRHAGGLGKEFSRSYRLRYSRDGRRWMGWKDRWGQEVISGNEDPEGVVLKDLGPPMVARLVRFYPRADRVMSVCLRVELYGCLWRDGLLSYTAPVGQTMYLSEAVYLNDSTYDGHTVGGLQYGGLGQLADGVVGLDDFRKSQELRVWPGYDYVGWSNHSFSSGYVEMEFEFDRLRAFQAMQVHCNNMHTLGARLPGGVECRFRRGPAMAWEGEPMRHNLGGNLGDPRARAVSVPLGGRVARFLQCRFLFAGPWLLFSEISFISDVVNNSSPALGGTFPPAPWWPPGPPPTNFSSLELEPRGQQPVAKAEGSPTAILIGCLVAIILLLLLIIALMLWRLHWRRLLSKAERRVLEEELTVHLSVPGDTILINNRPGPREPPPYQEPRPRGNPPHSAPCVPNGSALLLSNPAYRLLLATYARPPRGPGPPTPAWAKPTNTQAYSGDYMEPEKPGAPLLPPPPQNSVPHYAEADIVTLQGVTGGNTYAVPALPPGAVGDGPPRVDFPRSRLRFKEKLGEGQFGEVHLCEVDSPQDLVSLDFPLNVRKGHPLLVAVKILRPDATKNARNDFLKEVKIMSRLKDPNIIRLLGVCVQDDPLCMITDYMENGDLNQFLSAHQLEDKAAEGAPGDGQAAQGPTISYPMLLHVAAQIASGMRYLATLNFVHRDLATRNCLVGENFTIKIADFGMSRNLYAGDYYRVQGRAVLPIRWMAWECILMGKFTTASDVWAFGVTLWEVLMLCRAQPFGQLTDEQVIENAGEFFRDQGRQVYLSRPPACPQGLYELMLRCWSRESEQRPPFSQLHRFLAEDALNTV
UniProt Q9Y463, whole entry, looked up: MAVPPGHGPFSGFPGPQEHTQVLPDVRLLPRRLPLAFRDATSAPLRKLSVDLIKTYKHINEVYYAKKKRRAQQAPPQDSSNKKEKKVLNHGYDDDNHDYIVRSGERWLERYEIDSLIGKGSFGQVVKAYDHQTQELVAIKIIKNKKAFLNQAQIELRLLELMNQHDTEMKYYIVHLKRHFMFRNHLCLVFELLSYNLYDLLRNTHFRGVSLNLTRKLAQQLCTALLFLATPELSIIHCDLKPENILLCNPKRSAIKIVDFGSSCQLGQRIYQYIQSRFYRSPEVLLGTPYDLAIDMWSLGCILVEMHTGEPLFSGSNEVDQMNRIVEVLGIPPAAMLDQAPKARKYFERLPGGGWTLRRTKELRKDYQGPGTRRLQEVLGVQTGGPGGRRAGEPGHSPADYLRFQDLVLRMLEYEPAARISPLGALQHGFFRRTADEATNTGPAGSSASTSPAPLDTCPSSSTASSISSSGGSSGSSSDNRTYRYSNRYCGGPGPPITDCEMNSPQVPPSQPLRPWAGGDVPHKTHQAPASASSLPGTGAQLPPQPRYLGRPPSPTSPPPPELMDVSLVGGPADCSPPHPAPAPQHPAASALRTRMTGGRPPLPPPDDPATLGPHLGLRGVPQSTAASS
UniProt P29317, whole entry: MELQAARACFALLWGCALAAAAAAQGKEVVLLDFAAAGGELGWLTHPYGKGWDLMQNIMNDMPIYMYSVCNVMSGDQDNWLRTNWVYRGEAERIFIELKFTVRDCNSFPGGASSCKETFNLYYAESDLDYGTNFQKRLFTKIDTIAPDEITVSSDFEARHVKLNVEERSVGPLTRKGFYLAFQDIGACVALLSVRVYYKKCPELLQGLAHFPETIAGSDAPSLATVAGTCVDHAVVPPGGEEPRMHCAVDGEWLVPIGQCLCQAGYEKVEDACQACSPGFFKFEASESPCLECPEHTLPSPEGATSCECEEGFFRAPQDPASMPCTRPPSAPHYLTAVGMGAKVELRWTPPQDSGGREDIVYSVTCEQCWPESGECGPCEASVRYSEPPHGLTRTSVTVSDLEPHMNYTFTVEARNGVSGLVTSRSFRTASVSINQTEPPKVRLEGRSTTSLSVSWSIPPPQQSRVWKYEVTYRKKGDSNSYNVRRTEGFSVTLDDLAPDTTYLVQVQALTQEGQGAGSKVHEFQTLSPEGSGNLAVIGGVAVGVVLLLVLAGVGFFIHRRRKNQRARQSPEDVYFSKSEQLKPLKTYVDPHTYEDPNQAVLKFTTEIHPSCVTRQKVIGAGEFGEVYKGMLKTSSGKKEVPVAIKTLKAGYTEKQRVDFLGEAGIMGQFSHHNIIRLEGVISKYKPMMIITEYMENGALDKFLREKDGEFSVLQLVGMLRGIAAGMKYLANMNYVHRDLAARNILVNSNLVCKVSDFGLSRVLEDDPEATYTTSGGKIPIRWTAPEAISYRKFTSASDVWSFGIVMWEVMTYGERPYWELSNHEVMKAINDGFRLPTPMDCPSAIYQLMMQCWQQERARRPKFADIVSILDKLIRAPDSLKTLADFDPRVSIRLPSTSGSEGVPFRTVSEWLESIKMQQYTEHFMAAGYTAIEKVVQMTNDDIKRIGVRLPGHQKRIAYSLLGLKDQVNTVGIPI
UniProt Q15303, whole entry R711C: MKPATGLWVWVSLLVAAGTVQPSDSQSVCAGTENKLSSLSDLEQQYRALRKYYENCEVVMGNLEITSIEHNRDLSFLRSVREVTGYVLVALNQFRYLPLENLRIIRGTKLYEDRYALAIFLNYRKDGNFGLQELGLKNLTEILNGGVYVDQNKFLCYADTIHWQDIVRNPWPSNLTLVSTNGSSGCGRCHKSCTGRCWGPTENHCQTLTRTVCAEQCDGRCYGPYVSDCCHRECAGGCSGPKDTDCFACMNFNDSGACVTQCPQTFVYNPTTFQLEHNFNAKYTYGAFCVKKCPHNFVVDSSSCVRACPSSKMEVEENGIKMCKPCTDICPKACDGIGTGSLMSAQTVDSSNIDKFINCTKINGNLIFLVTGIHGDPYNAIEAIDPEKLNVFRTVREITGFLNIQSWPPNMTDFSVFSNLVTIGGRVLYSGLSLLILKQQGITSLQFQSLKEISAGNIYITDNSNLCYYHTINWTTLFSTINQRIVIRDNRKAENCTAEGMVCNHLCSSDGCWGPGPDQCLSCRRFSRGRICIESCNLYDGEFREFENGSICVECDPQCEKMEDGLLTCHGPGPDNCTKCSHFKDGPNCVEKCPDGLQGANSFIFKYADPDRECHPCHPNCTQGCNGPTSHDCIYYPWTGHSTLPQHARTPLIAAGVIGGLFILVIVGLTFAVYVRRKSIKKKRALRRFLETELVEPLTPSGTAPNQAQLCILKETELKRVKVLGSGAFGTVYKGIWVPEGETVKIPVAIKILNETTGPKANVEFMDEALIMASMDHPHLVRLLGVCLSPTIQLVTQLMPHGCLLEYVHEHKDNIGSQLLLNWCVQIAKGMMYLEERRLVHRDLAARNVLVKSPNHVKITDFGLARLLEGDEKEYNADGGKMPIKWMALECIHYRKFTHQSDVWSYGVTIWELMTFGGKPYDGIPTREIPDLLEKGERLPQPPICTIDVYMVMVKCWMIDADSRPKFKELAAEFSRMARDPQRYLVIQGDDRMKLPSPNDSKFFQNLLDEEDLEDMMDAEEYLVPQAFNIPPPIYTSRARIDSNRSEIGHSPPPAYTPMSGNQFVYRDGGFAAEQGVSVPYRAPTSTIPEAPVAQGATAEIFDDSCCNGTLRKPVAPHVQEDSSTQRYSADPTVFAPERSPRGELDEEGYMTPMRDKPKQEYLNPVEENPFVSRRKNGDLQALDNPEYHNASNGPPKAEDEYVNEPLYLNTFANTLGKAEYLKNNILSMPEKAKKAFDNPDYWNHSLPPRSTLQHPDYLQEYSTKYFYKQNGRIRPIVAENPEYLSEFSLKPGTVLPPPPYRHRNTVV

Assays:
Assay in all cases: kinase-Nluc reporter destabilization hit call (1 = scored as downregulated) (binary); higher = compound decreases kinase abundance
Details in all cases: K562; 2-18 h
CDK7 = CDK7 (UniProt P50613)
CDK9 = CDK9 (UniProt P50750)
CHEK2 = CHEK2 (UniProt O96017)
CSF1R = CSF1R (UniProt P07333)
CSK = CSK (UniProt P41240)
CSNK1A1 = CSNK1A1 (UniProt P48729)
CSNK1D = CSNK1D (UniProt P48730)
DDR1 = DDR1 (UniProt Q08345)
DYRK1B = DYRK1B (UniProt Q9Y463)
DYRK2 = DYRK2 (UniProt Q92630)
EGFR = EGFR (UniProt P00533)
EGFR_G719S = EGFR_G719S (UniProt P00533)
EGFR_G719S_T790M = EGFR_G719S_T790M (UniProt P00533)
EGFR_L718V = EGFR_L718V (UniProt P00533)
EGFR_L858R = EGFR_L858R (UniProt P00533)
EGFR_L861Q = EGFR_L861Q (UniProt P00533)
EGFR_T790M = EGFR_T790M (UniProt P00533)
EPHA2 = EPHA2 (UniProt P29317)
ERBB3 = ERBB3 (UniProt P21860)
[1] = target: ERBB4_R711C (clone: ERBB4_mut) (UniProt Q15303)

Measured: kinase-Nluc reporter destabilization hit call

CC[C@@H](N)CNc1ccnc(-c2cc(-c3cnn(C)c3)ccc2O)n1 (2.5 µM)
inactive: CDK7 = 0 | CDK9 = 0 | CHEK2 = 0 | CSF1R 0 | CSK 0 | CSNK1A1 = 0 | CSNK1D 0 | DDR1 = 0 | DYRK1B 0 | DYRK2 = 0 | EGFR 0 | EGFR_G719S 0 | EGFR_G719S_T790M 0 | EGFR_L718V 0 | EGFR_L858R 0 | EGFR_L861Q 0 | EGFR_T790M 0 | EPHA2 = 0 | ERBB3 = 0 | [1] 0

CCc1ccc(C(=O)COc2ccc(CC3SC(=O)NC3=O)cc2)nc1 (stereo not given) (10 µM)
inactive: CDK7 = 0 | CDK9 = 0 | CHEK2 = 0 | CSF1R 0 | CSK 0 | CSNK1A1 = 0 | CSNK1D 0 | DDR1 = 0 | DYRK1B 0 | DYRK2 = 0 | EGFR 0 | EGFR_G719S 0 | EGFR_G719S_T790M 0 | EGFR_L718V 0 | EGFR_L858R 0 | EGFR_L861Q 0 | EGFR_T790M 0 | EPHA2 = 0 | ERBB3 = 0 | [1] 0

CCOC(=O)c1c2c3c(cccc3[nH]c1=O)C(=O)c1ccccc1-2 (10 µM)
inactive: CDK7 = 0 | CDK9 = 0 | CHEK2 = 0 | CSF1R 0 | CSK 0 | CSNK1A1 = 0 | CSNK1D 0 | DDR1 = 0 | DYRK1B 0 | DYRK2 = 0 | EGFR 0 | EGFR_G719S 0 | EGFR_G719S_T790M 0 | EGFR_L718V 0 | EGFR_L858R 0 | EGFR_L861Q 0 | EGFR_T790M 0 | EPHA2 = 0 | ERBB3 = 0 | [1] 0

NS(=O)(=O)c1ccc(N2N=C(c3ccccc3)CC2c2ccccc2)cc1 (stereo not given) (10 µM)
inactive: CDK7 = 0 | CDK9 = 0 | CHEK2 = 0 | CSF1R 0 | CSK 0 | CSNK1A1 = 0 | CSNK1D 0 | DDR1 = 0 | DYRK1B 0 | DYRK2 = 0 | EGFR 0 | EGFR_G719S 0 | EGFR_G719S_T790M 0 | EGFR_L718V 0 | EGFR_L858R 0 | EGFR_L861Q 0 | EGFR_T790M 0 | EPHA2 = 0 | ERBB3 = 0 | [1] 0

Oc1ccccc1C(=S)N1CCCC1 (10 µM)
inactive: CDK7 = 0 | CDK9 = 0 | CHEK2 = 0 | CSF1R 0 | CSK 0 | CSNK1A1 = 0 | CSNK1D 0 | DDR1 = 0 | DYRK1B 0 | DYRK2 = 0 | EGFR 0 | EGFR_G719S 0 | EGFR_G719S_T790M 0 | EGFR_L718V 0 | EGFR_L858R 0 | EGFR_L861Q 0 | EGFR_T790M 0 | EPHA2 = 0 | ERBB3 = 0 | [1] 0

COc1ccc(-n2c(C)c([N+](=O)[O-])c3ccc(O)cc32)cc1 (10 µM)
inactive: CDK7 = 0 | CDK9 = 0 | CHEK2 = 0 | CSF1R 0 | CSK 0 | CSNK1A1 = 0 | CSNK1D 0 | DDR1 = 0 | DYRK1B 0 | DYRK2 = 0 | EGFR 0 | EGFR_G719S 0 | EGFR_G719S_T790M 0 | EGFR_L718V 0 | EGFR_L858R 0 | EGFR_L861Q 0 | EGFR_T790M 0 | EPHA2 = 0 | ERBB3 = 0 | [1] 0

Fc1c(Br)cccc1Nc1ncnc2cc3c(cc12)OCCO3 (2.5 µM)
inactive: CDK7 = 0 | CDK9 = 0 | CHEK2 = 0 | CSF1R 0 | CSK 0 | CSNK1A1 = 0 | CSNK1D 0 | DDR1 = 0 | DYRK1B 0 | DYRK2 = 0 | EGFR 0 | EGFR_G719S 0 | EGFR_G719S_T790M 0 | EGFR_L718V 0 | EGFR_L858R 0 | EGFR_L861Q 0 | EGFR_T790M 0 | EPHA2 = 0 | ERBB3 = 0 | [1] 0

COc1ccc(CN2C3CC2CN(c2ccc(-c4cc(OCC(C)(C)O)cn5ncc(C#N)c45)cn2)C3)cn1 [Selpercatinib] (10 µM)
inactive: CDK7 = 0 | CDK9 = 0 | CHEK2 = 0 | CSF1R 0 | CSK 0 | CSNK1A1 = 0 | CSNK1D 0 | DDR1 = 0 | DYRK1B 0 | DYRK2 = 0 | EGFR 0 | EGFR_G719S 0 | EGFR_G719S_T790M 0 | EGFR_L718V 0 | EGFR_L858R 0 | EGFR_L861Q 0 | EGFR_T790M 0 | EPHA2 = 0 | ERBB3 = 0 | [1] 0

O=[N+]([O-])c1ccc(Sc2cccc[n+]2[O-])c2nonc12 (2.5 µM)
inactive: CDK7 = 0 | CDK9 = 0 | CHEK2 = 0 | CSF1R 0 | CSK 0 | CSNK1A1 = 0 | CSNK1D 0 | DDR1 = 0 | DYRK1B 0 | DYRK2 = 0 | EGFR 0 | EGFR_G719S 0 | EGFR_G719S_T790M 0 | EGFR_L718V 0 | EGFR_L858R 0 | EGFR_L861Q 0 | EGFR_T790M 0 | EPHA2 = 0 | ERBB3 = 0 | [1] 0

COc1ccc2c(c1OC)OC1c3ccc(O)cc3OCC21 (stereo not given) [Methylnissolin] (10 µM)
inactive: CDK7 = 0 | CDK9 = 0 | CHEK2 = 0 | CSF1R 0 | CSK 0 | CSNK1A1 = 0 | CSNK1D 0 | DDR1 = 0 | DYRK1B 0 | DYRK2 = 0 | EGFR 0 | EGFR_G719S 0 | EGFR_G719S_T790M 0 | EGFR_L718V 0 | EGFR_L858R 0 | EGFR_L861Q 0 | EGFR_T790M 0 | EPHA2 = 0 | ERBB3 = 0 | [1] 0

c1ccc(-c2nn3c(c2-c2ccnc4cc(OCCN5CCOCC5)ccc24)CCC3)nc1 (10 µM)
inactive: CDK7 = 0 | CDK9 = 0 | CHEK2 = 0 | CSF1R 0 | CSK 0 | CSNK1A1 = 0 | CSNK1D 0 | DDR1 = 0 | DYRK1B 0 | DYRK2 = 0 | EGFR 0 | EGFR_G719S 0 | EGFR_G719S_T790M 0 | EGFR_L718V 0 | EGFR_L858R 0 | EGFR_L861Q 0 | EGFR_T790M 0 | EPHA2 = 0 | ERBB3 = 0 | [1] 0

O=C(O)CCc1ccc(NCc2cccc(Oc3ccccc3)c2)cc1 (10 µM)
inactive: CDK7 = 0 | CDK9 = 0 | CHEK2 = 0 | CSF1R 0 | CSK 0 | CSNK1A1 = 0 | CSNK1D 0 | DDR1 = 0 | DYRK1B 0 | DYRK2 = 0 | EGFR 0 | EGFR_G719S 0 | EGFR_G719S_T790M 0 | EGFR_L718V 0 | EGFR_L858R 0 | EGFR_L861Q 0 | EGFR_T790M 0 | EPHA2 = 0 | ERBB3 = 0 | [1] 0

CN1CCN(CCCNc2ncc(Cl)c(-c3cc4c(C(=O)NC5CC5)cccc4s3)n2)CC1 (10 µM)
inactive: CDK7 = 0 | CDK9 = 0 | CHEK2 = 0 | CSF1R 0 | CSK 0 | CSNK1A1 = 0 | CSNK1D 0 | DDR1 = 0 | DYRK1B 0 | DYRK2 = 0 | EGFR 0 | EGFR_G719S 0 | EGFR_G719S_T790M 0 | EGFR_L718V 0 | EGFR_L858R 0 | EGFR_L861Q 0 | EGFR_T790M 0 | EPHA2 = 0 | ERBB3 = 0 | [1] 0

CN(C)c1nc2c(Br)c(Br)c(Br)c(Br)c2n1CC(=O)O (10 µM)
inactive: CDK7 = 0 | CDK9 = 0 | CHEK2 = 0 | CSF1R 0 | CSK 0 | CSNK1A1 = 0 | CSNK1D 0 | DDR1 = 0 | DYRK1B 0 | DYRK2 = 0 | EGFR 0 | EGFR_G719S 0 | EGFR_G719S_T790M 0 | EGFR_L718V 0 | EGFR_L858R 0 | EGFR_L861Q 0 | EGFR_T790M 0 | EPHA2 = 0 | ERBB3 = 0 | [1] 0

COc1cc(-c2cc(-c3cc(OC)c(OC)c(OC)c3)cc(C(F)P(=O)(OCOC(=O)C(C)(C)C)OCOC(=O)C(C)(C)C)c2)cc(OC)c1OC (stereo not given) [Stafia-1-dipivaloyloxymethyl ester] (2.5 µM)
inactive: CDK7 = 0 | CDK9 = 0 | CHEK2 = 0 | CSF1R 0 | CSK 0 | CSNK1A1 = 0 | CSNK1D 0 | DDR1 = 0 | DYRK1B 0 | DYRK2 = 0 | EGFR 0 | EGFR_G719S 0 | EGFR_G719S_T790M 0 | EGFR_L718V 0 | EGFR_L858R 0 | EGFR_L861Q 0 | EGFR_T790M 0 | EPHA2 = 0 | ERBB3 = 0 | [1] 0

C[C@@H]1COCCN1c1cc(=O)n2c(n1)N(Cc1cncc(Cl)c1)[C@H](C(F)(F)F)CC2 (10 µM)
inactive: CDK7 = 0 | CDK9 = 0 | CHEK2 = 0 | CSF1R 0 | CSK 0 | CSNK1A1 = 0 | CSNK1D 0 | DDR1 = 0 | DYRK1B 0 | DYRK2 = 0 | EGFR 0 | EGFR_G719S 0 | EGFR_G719S_T790M 0 | EGFR_L718V 0 | EGFR_L858R 0 | EGFR_L861Q 0 | EGFR_T790M 0 | EPHA2 = 0 | ERBB3 = 0 | [1] 0

O=C1NC(=O)C(c2cn(-c3ccccc3)nc2-c2ccc(F)cc2)N1 (stereo not given) (10 µM)
inactive: CDK7 = 0 | CDK9 = 0 | CHEK2 = 0 | CSF1R 0 | CSK 0 | CSNK1A1 = 0 | CSNK1D 0 | DDR1 = 0 | DYRK1B 0 | DYRK2 = 0 | EGFR 0 | EGFR_G719S 0 | EGFR_G719S_T790M 0 | EGFR_L718V 0 | EGFR_L858R 0 | EGFR_L861Q 0 | EGFR_T790M 0 | EPHA2 = 0 | ERBB3 = 0 | [1] 0

Arranged by count of non-hydrogen atoms (smallest number first): 3 of the compounds above
O=C1NC(=O)C(c2cn(-c3ccccc3)nc2-c2ccc(F)cc2)N1 (stereo not given) (10 µM)
inactive: CDK7 = 0 | CDK9 = 0 | CHEK2 = 0 | CSF1R 0 | CSK 0 | CSNK1A1 = 0 | CSNK1D 0 | DDR1 = 0 | DYRK1B 0 | DYRK2 = 0 | EGFR 0 | EGFR_G719S 0 | EGFR_G719S_T790M 0 | EGFR_L718V 0 | EGFR_L858R 0 | EGFR_L861Q 0 | EGFR_T790M 0 | EPHA2 = 0 | ERBB3 = 0 | [1] 0

CN1CCN(CCCNc2ncc(Cl)c(-c3cc4c(C(=O)NC5CC5)cccc4s3)n2)CC1 (10 µM)
inactive: CDK7 = 0 | CDK9 = 0 | CHEK2 = 0 | CSF1R 0 | CSK 0 | CSNK1A1 = 0 | CSNK1D 0 | DDR1 = 0 | DYRK1B 0 | DYRK2 = 0 | EGFR 0 | EGFR_G719S 0 | EGFR_G719S_T790M 0 | EGFR_L718V 0 | EGFR_L858R 0 | EGFR_L861Q 0 | EGFR_T790M 0 | EPHA2 = 0 | ERBB3 = 0 | [1] 0

COc1cc(-c2cc(-c3cc(OC)c(OC)c(OC)c3)cc(C(F)P(=O)(OCOC(=O)C(C)(C)C)OCOC(=O)C(C)(C)C)c2)cc(OC)c1OC (stereo not given) [Stafia-1-dipivaloyloxymethyl ester] (2.5 µM)
inactive: CDK7 = 0 | CDK9 = 0 | CHEK2 = 0 | CSF1R 0 | CSK 0 | CSNK1A1 = 0 | CSNK1D 0 | DDR1 = 0 | DYRK1B 0 | DYRK2 = 0 | EGFR 0 | EGFR_G719S 0 | EGFR_G719S_T790M 0 | EGFR_L718V 0 | EGFR_L858R 0 | EGFR_L861Q 0 | EGFR_T790M 0 | EPHA2 = 0 | ERBB3 = 0 | [1] 0
